According to patent publication US20060188903A1, “Implantation serine proteinases” (priority 2001, published 2006):
Results are given in words; binding and its absence hold for the method and conditions named. Binding can be weak; no strength is given.

Target: Implantation Serine Proteinase 2 (ISP2) (mouse)
Assay: Western blot of uterine material; no details given

B1: Implantation Serine Proteinase 1 (ISP1) (enzyme)
chain: KPVGIVGGQRTPPGKWPWQVSLRMYSYEVNSWVHICGGSIIHPQWILTAAHCIQSQDADPAVYRVQVGEVYLYKEQELLTISRIIIHPDYNDVSKRFDLALMQLTALLVTSTNVSPVSLPKDSSTFDSTDQCWLVGWGNLLQRVPLQPPYQLHEVKIPIQDNKSCKRAYRKKSSDEHKAVAIFDDMLCAGTSGRGPCFGVSGGPLVCWKSNKWIQVGVVSKGIDCSNNQPSIFSRVQSSLAWIHQHIQ
For B1, the binding was “binds”.
